The data set in a line: Observance of treatment (compliance). On the set-up: species or system human. As for the experimental part: [table] The data analysis was performed using two complementary strategies: the modified intention to treat (mITT) and the per protocol (PP). […] The PP analysis only concerns patients who strictly adhered to the protocol.

With `NC(=O)c1ccc[n+]([C@@H]2O[C@H](COP(=O)([O-])O)[C@@H](O)[C@H]2O)c1` [beta-NMN, nicotinamide mononucleotide], the “mean value of compliance” value (PP population, period V1-V4 (ranging from 97.8 to 100%)) was 99.2±1.1%. Where the note is “mITT population, period V1-V4 (ranging from 92.5 to 100%)”, the mean compliance value was determined as 98.4±2.6%.
